Laboratory results: PubChem BioAssay AID743454 (Peter MacCallum Cancer Centre, 2014)
In all, the deposit lists about 18,000 reagents; below is an unselected part. In the full data, 450 (2.5%) were called active. 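Single biological run; no consistent viability z cut-off exists, so the class columns, not z-scores, define the calls.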 No sequences are given here.

Purpose: 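Search for knock-downs that restore vorinostat killing in resistant colon cancer cells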 (primary screen)
Cell system: human HCT116-VR colon cancer cells, selected for vorinostat resistance
Reagent: siRNA pool against human genes, 40 nM siRNA pool
Timing: vorinostat for 24 h, read-out about 72 h after transfection
Treatment: vorinostat at 2.5 µM final
Detection: 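Two measures, CellTiter-Fluor viability and luminescent caspase 3/7 activity, each as fold change against same-plate mock wells, mean of duplicates, then screen-wide robust z-score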
Reading the numbers: viability robust z-score: higher = more viable cells than screen typical; caspase robust z-score: higher = more caspase 3/7 activity than screen typical
Call rule: 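Hits are knock-downs in viability class RV1/RV2 or caspase class CA1/CA2, excluding ones that killed cells in the no-drug cell-count arm; hits then retested with single siRNAs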

MYO1C (myosin IC): viability hit class = no change; caspase hit class = no change; viability robust z-score = 0.02; caspase robust z-score = 0.2; call = inactive
EIF3J (eukaryotic translation initiation factor 3 subunit J): viability hit class = no change; caspase hit class = no change; viability robust z-score = 0.3; caspase robust z-score = 0.36; call = inactive
TMEM38A (transmembrane protein 38A): viability hit class = no change; caspase hit class = no change; viability robust z-score = -0.09; caspase robust z-score = 0.41; call = inactive
TMEM132D (transmembrane protein 132D): viability hit class = no change; caspase hit class = no change; viability robust z-score = -0.07; caspase robust z-score = 0.18; call = inactive
IL4 (interleukin 4): viability hit class = no change; caspase hit class = no change; viability robust z-score = -0.87; caspase robust z-score = 3.57; call = inactive
SIRT7 (sirtuin 7): viability hit class = no change; caspase hit class = no change; viability robust z-score = 1.21; caspase robust z-score = 1.27; call = inactive
SPI1 (Spi-1 proto-oncogene): viability hit class = no change; caspase hit class = no change; viability robust z-score = -1.43; caspase robust z-score = -0.92; call = inactive
B4GALT2 (beta-1,4-galactosyltransferase 2): viability hit class = no change; caspase hit class = no change; viability robust z-score = -0.01; caspase robust z-score = 0.03; call = inactive
MTIF3 (mitochondrial translational initiation factor 3): viability hit class = no change; caspase hit class = no change; viability robust z-score = 0.54; caspase robust z-score = 0.98; call = inactive
ZNF563 (zinc finger protein 563): viability hit class = no change; caspase hit class = no change; viability robust z-score = -0.5; caspase robust z-score = 3.06; call = inactive
ISY1 (ISY1 spliceosome associated protein): viability hit class = no change; caspase hit class = no change; viability robust z-score = -3.87; caspase robust z-score = 0.78; call = inactive
CGAS (cyclic GMP-AMP synthase): viability hit class = no change; caspase hit class = no change; viability robust z-score = 0.62; caspase robust z-score = 1.4; call = inactive
TMC5 (transmembrane channel like 5): viability hit class = no change; caspase hit class = no change; viability robust z-score = -0.26; caspase robust z-score = 0; call = inactive
STOM (stomatin): viability hit class = no change; caspase hit class = no change; viability robust z-score = -1.14; caspase robust z-score = -0.58; call = inactive
DCAF4 (DDB1 and CUL4 associated factor 4): viability hit class = no change; caspase hit class = no change; viability robust z-score = -1.56; caspase robust z-score = -0.62; call = inactive
SIGLEC8 (sialic acid binding Ig like lectin 8): viability hit class = no change; caspase hit class = no change; viability robust z-score = 1.52; caspase robust z-score = 0.98; call = inactive
ZFTRAF1 (zinc finger TRAF-type and ring finger containing 1): viability hit class = no change; caspase hit class = no change; viability robust z-score = -0.97; caspase robust z-score = 0.58; call = inactive
OR1L1 (olfactory receptor family 1 subfamily L member 1): viability hit class = no change; caspase hit class = no change; viability robust z-score = -0.22; caspase robust z-score = -0.64; call = inactive
EPO (erythropoietin): viability hit class = no change; caspase hit class = no change; viability robust z-score = -0.27; caspase robust z-score = 0.22; call = inactive
PPP6R1 (protein phosphatase 6 regulatory subunit 1): viability hit class = no change; caspase hit class = no change; viability robust z-score = -0.57; caspase robust z-score = 0.42; call = inactive
ABRAXAS1 (abraxas 1, BRCA1 A complex subunit): viability hit class = no change; caspase hit class = no change; viability robust z-score = -0.83; caspase robust z-score = 0.26; call = inactive
DZIP1 (DAZ interacting zinc finger protein 1): viability hit class = no change; caspase hit class = no change; viability robust z-score = -0.44; caspase robust z-score = -1.12; call = inactive
IGF2-AS (IGF2 antisense RNA): viability hit class = no change; caspase hit class = no change; viability robust z-score = 0.48; caspase robust z-score = -0.78; call = inactive
TRIM36 (tripartite motif containing 36): viability hit class = no change; caspase hit class = no change; viability robust z-score = 1.09; caspase robust z-score = 0.54; call = inactive
TBC1D16 (TBC1 domain family member 16): viability hit class = no change; caspase hit class = no change; viability robust z-score = 0.64; caspase robust z-score = 0.62; call = inactive
RBP7 (retinol binding protein 7): viability hit class = no change; caspase hit class = no change; viability robust z-score = 0.1; caspase robust z-score = -0.72; call = inactive
KCMF1 (potassium channel modulatory factor 1): viability hit class = no change; caspase hit class = no change; viability robust z-score = 1.49; caspase robust z-score = -0.24; call = inactive

Limited to “viability robust z-score” (5 entries from above):
B4GALT2 (beta-1,4-galactosyltransferase 2)	-0.01
MTIF3 (mitochondrial translational initiation factor 3)	0.54
ZNF563 (zinc finger protein 563)	-0.5
ISY1 (ISY1 spliceosome associated protein)	-3.87
CGAS (cyclic GMP-AMP synthase)	0.62
